Measurements from the supplement of paper PMC10032668.
The list shows a part of the results. The list holds hits alone, and they repeat only in part.

Chains of the proteins cited; added tags and fusions are not shown.
SRSF9, Q13242, UniProt Q13242, whole entry: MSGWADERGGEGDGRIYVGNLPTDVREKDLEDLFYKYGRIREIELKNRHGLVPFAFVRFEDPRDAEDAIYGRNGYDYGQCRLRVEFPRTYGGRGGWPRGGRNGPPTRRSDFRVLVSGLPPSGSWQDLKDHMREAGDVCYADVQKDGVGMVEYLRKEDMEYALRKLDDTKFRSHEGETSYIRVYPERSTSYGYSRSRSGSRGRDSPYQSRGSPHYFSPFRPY
CKS2, P33552, UniProt P33552, whole entry: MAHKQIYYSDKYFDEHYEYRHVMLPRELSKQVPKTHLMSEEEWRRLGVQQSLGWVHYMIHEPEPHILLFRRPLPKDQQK
PCBP2, Q15366, UniProt Q15366, whole entry: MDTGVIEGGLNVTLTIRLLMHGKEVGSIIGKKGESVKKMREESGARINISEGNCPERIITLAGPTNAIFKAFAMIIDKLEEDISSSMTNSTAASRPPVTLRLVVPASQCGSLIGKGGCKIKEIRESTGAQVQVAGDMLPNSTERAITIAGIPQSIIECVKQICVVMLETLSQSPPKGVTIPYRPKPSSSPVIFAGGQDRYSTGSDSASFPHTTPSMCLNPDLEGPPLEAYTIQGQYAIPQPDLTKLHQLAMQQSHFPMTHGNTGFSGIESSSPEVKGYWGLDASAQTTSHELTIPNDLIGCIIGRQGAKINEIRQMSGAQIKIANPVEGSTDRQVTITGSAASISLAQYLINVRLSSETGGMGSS
AP2A2, O94973, UniProt O94973, whole entry: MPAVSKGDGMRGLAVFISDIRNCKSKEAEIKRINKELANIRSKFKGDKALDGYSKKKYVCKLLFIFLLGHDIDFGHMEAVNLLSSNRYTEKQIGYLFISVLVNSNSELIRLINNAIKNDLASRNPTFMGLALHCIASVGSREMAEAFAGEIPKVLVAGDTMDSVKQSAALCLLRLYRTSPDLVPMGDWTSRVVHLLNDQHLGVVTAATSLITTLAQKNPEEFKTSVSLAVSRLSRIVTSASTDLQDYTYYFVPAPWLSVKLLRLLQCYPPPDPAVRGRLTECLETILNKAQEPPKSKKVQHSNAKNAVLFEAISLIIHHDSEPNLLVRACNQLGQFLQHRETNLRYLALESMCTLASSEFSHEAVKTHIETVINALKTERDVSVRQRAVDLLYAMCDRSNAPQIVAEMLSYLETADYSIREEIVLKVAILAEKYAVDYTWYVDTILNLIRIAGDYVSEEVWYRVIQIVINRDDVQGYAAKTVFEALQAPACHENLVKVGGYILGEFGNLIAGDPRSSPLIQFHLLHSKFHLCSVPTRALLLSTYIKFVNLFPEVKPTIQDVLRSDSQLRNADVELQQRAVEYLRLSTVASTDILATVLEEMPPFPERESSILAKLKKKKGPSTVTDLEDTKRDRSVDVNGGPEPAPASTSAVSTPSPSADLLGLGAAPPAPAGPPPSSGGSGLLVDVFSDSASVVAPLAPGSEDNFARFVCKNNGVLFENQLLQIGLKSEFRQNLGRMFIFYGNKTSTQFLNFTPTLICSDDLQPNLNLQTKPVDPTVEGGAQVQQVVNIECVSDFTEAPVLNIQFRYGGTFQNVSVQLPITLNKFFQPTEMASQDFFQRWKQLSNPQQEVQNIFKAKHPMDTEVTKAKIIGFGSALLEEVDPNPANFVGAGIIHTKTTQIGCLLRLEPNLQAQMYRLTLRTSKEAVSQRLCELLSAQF
CKS1B, P61024, UniProt P61024, whole entry: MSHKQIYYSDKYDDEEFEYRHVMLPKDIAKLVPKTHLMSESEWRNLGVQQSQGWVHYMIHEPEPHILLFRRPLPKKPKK
DNAJB1, P25685, UniProt P25685, whole entry: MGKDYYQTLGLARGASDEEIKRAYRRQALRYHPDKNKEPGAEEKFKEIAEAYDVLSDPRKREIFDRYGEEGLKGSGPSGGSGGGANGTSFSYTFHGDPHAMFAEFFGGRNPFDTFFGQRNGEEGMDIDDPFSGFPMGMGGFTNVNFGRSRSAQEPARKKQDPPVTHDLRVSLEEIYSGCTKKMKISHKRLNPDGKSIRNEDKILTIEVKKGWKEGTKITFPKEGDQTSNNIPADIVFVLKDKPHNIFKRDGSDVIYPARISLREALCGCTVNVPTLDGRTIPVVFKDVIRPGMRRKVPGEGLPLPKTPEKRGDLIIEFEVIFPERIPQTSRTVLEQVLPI
GABARAP, O95166, UniProt O95166, whole entry: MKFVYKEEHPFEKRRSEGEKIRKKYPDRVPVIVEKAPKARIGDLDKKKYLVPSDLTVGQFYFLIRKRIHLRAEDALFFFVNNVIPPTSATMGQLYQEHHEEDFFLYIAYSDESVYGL
PLK1, P53350, UniProt P53350, whole entry: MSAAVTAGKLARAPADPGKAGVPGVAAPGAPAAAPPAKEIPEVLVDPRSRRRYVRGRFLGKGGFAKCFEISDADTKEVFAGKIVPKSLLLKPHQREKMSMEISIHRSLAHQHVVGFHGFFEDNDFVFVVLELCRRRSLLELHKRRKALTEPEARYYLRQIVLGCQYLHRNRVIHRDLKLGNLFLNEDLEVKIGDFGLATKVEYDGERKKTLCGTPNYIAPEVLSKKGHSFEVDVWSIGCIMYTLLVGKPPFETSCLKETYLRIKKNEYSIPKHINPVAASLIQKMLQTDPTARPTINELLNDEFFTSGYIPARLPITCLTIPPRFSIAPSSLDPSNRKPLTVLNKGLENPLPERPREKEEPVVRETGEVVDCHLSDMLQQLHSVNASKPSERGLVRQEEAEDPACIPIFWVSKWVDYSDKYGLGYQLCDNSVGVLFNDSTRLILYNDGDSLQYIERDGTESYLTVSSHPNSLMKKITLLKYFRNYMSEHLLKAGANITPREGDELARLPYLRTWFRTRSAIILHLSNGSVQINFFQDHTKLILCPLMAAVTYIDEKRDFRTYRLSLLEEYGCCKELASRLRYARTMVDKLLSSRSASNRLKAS
C15orf61, A6NNL5, UniProt A6NNL5, whole entry: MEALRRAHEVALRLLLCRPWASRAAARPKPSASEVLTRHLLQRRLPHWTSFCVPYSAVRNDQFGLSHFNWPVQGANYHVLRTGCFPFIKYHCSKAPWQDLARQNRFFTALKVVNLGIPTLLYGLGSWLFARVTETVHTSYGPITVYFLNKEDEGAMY
ARID1A, O14497, UniProt O14497, whole entry: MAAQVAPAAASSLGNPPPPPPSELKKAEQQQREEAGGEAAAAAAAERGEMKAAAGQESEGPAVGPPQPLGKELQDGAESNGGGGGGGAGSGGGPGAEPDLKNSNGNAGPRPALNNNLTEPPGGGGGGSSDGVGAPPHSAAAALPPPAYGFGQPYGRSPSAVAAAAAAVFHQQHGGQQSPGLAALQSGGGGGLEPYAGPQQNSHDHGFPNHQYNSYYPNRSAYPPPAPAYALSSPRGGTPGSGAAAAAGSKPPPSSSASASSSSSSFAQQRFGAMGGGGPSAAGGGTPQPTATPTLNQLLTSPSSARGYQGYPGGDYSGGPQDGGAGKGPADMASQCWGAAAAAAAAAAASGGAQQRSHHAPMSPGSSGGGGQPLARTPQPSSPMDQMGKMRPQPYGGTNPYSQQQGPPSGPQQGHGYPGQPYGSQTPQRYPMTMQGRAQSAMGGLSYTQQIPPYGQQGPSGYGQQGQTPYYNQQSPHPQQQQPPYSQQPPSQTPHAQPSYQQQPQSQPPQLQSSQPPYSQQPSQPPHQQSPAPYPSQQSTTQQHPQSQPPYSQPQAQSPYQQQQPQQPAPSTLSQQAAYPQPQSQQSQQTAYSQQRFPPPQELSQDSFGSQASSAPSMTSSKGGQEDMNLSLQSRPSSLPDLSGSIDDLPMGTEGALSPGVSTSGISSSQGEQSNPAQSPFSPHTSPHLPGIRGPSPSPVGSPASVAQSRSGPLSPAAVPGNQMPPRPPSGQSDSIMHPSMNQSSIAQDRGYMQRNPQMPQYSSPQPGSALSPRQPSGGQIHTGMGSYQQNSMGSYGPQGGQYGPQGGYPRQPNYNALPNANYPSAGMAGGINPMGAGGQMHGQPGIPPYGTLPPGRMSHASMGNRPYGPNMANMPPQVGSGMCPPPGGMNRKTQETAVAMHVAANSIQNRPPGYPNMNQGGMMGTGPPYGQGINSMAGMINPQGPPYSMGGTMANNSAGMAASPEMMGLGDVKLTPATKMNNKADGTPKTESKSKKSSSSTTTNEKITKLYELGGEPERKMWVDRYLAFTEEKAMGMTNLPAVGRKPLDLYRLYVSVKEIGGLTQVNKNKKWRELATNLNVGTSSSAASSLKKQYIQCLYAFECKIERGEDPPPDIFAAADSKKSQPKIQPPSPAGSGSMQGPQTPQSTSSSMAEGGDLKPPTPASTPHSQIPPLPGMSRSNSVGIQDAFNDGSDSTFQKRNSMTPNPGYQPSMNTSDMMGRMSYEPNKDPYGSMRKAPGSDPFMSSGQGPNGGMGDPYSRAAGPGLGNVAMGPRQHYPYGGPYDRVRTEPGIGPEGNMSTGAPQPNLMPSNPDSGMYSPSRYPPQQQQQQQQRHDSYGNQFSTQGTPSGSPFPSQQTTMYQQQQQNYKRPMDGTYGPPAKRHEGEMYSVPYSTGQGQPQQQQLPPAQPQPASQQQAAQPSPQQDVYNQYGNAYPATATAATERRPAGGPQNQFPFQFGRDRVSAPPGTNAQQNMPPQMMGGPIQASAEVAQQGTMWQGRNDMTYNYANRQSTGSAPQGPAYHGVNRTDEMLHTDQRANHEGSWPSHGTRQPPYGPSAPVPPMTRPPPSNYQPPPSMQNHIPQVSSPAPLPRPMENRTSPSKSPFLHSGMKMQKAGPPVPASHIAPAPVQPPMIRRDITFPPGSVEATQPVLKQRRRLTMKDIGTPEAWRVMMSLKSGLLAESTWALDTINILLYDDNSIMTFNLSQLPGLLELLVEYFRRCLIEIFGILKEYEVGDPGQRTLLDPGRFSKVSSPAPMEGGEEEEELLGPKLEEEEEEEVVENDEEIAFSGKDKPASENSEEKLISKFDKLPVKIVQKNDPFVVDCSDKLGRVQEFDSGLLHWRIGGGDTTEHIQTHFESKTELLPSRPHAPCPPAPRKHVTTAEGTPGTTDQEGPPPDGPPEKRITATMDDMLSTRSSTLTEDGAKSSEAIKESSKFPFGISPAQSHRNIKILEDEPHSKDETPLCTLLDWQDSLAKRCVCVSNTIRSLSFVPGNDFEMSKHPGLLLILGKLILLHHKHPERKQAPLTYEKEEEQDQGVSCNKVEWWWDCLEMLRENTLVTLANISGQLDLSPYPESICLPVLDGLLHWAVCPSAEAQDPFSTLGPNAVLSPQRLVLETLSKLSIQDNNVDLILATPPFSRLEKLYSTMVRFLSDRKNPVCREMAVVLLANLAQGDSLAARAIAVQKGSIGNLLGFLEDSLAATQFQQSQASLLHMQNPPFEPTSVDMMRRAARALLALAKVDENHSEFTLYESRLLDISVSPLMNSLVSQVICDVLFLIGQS
LIG1, P18858, UniProt P18858, whole entry: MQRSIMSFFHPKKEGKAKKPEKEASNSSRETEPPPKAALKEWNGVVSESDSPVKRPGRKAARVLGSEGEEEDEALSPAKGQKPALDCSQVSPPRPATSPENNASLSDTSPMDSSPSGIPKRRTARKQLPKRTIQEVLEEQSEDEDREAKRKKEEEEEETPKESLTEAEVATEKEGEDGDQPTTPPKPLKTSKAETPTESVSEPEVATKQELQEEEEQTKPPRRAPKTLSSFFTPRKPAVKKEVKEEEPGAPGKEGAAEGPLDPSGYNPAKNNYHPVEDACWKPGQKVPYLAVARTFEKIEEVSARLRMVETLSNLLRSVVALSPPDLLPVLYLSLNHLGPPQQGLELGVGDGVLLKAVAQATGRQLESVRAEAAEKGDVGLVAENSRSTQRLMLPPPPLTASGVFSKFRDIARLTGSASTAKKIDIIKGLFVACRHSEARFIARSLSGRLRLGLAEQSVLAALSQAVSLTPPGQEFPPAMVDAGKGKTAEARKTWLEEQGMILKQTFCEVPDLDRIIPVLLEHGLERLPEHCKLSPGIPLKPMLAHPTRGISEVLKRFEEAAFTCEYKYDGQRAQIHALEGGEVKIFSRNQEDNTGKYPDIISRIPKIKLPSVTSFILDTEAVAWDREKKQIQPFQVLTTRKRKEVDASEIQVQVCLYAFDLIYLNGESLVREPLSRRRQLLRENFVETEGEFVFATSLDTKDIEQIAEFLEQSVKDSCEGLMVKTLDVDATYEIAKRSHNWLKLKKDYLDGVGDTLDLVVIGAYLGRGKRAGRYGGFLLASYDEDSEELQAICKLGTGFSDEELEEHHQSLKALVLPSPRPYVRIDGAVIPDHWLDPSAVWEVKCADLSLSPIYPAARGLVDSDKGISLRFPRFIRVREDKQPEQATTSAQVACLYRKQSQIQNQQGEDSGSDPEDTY
LANCL1, O43813, UniProt O43813, whole entry: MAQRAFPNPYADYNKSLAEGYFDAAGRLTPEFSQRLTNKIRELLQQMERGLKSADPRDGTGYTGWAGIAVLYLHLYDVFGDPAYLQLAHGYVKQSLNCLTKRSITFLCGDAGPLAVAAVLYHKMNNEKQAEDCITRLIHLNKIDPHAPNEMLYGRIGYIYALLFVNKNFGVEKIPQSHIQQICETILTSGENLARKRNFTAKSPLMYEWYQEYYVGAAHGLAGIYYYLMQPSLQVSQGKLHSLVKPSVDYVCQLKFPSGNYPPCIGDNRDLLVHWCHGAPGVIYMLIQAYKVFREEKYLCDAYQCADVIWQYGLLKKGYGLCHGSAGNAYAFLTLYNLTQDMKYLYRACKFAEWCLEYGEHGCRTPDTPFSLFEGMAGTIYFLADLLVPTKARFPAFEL

How the values were obtained:
Assay in all cases: PRISMA enrichment of interactor (LFQ) in peptide spot vs all other peptide spots (log2 fold change); higher = stronger / more specific binding of the interactor to the peptide
[1] = target: AOC3, Q16853
Description: (§1)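 PRISMA: 221 full-length sORF-encoded peptides (3-15 aa), plus SOS1/GLUT1 control peptides, were spot-synthesized on cellulose membranes in triplicate. Membranes were incubated with HEK293T lysate, and bound proteins were identified by LC-MS/MS with LFQ. Enrichment is the log2 fold change versus all other peptide spots; only significant interactors are listed (cutoff c=6, x0=2.8).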

[2] = target: DFFA, O00273
Description: as §1

[3] = target: GET1, O00258
Description: as §1

[4] = target: RMDN3, Q96TC7
Description: as §1

[5] = target: ZBTB11, O95625
Description: as §1

[6] = target: ZC3HAV1, Q7Z2W4
Description: as §1

[7] = target: APOBEC3C, Q9NRW3
Description: as §1

[8] = target: CRNKL1, Q9BZJ0
Description: as §1

[9] = target: MAZ, P56270
Description: as §1

[10] = target: PUM3, Q15397
Description: as §1

[11] = target: SAMD1, Q6SPF0
Description: as §1

[12] = target: SLC37A4, O43826
Description: as §1

[13] = target: SORBS1, Q9BX66
Description: as §1

[14] = target: SRSF9, Q13242
Description: as §1

[15] = target: TBL2, Q9Y4P3
Description: as §1

[16] = target: TXNL4A, P83876
Description: as §1

[17] = target: AP3M1, Q9Y2T2
Description: as §1

[18] = target: CKS2, P33552
Description: as §1

[19] = target: COL6A2, P12110
Description: as §1

[20] = target: CTNNBL1, Q8WYA6
Description: as §1

[21] = target: DUSP3, P51452
Description: as §1

[22] = target: MCU, Q8NE86
Description: as §1

[23] = target: MT-ND1, P03886
Description: as §1

[24] = target: PCBP2, Q15366
Description: as §1

[25] = target: PICALM, Q13492
Description: as §1

[26] = target: TBL1X, O60907
Description: as §1

[27] = target: TMED1, Q13445
Description: as §1

[28] = target: UMPS, P11172
Description: as §1

[29] = target: VIRMA, Q69YN4
Description: as §1

[30] = target: WDR5, P61964
Description: as §1

[31] = target: YTHDC2, Q9H6S0
Description: as §1

[32] = target: AP2A1, O95782
Description: as §1

[33] = target: AP2A2, O94973
Description: as §1

[34] = target: AP2B1, P63010
Description: as §1

[35] = target: AP2M1, Q96CW1
Description: as §1

[36] = target: CKS1B, P61024
Description: as §1

[37] = target: CSNK1E, P49674
Description: as §1

[38] = target: CXorf56, Q9H5V9
Description: as §1

[39] = target: DAZAP1, Q96EP5
Description: as §1

[40] = target: DERPC, P0CG12
Description: as §1

[41] = target: DNAJA3, Q96EY1
Description: as §1

[42] = target: DNAJB1, P25685
Description: as §1

[43] = target: DNAJB4, Q9UDY4
Description: as §1

[44] = target: ENDOG, Q14249
Description: as §1

[45] = target: FKBP2, P26885
Description: as §1

[46] = target: GABARAP, O95166
Description: as §1

[47] = target: NUDT16L1, Q9BRJ7
Description: as §1

[48] = target: PLK1, P53350
Description: as §1

[49] = target: RAE1, P78406
Description: as §1

[50] = target: SSBP1, Q04837
Description: as §1

[51] = target: APRT, P07741
Description: as §1

[52] = target: C15orf61, A6NNL5
Description: as §1

[53] = target: CHTF18, Q8WVB6
Description: as §1

[54] = target: EIF2B3, Q9NR50
Description: as §1

[55] = target: FOXK1, P85037
Description: as §1

[56] = target: NDUFAB1, O14561
Description: as §1

[57] = target: NUP188, Q5SRE5
Description: as §1

[58] = target: SDC4, P31431
Description: as §1

[59] = target: VPS18, Q9P253
Description: as §1

[60] = target: ARID1A, O14497
Description: as §1

[61] = target: CSNK1A1, P48729
Description: as §1

[62] = target: IPO11, Q9UI26
Description: as §1

[63] = target: LIG1, P18858
Description: as §1

[64] = target: SDF4, Q9BRK5
Description: as §1

[65] = target: ZYX, Q15942
Description: as §1

[66] = target: ANP32B, Q92688
Description: as §1

[67] = target: ANP32E, Q9BTT0
Description: as §1

[68] = target: CDC42EP1, Q00587
Description: as §1

[69] = target: GC, P02774
Description: as §1

[70] = target: NAP1L1, P55209
Description: as §1

[71] = target: ORC5, O43913
Description: as §1

[72] = target: ANXA7, P20073
Description: as §1

[73] = target: COA7, Q96BR5
Description: as §1

[74] = target: FAM168A, Q92567
Description: as §1

[75] = target: LANCL1, O43813
Description: as §1

[76] = target: MAPK1IP1L, Q8NDC0
Description: as §1

[77] = target: PDCD6, O75340
Description: as §1

[78] = target: SRI, P30626
Description: as §1

[79] = target: SS18, Q15532
Description: as §1

B1: SLC52A3 (peptide)
chain: MELKTAA
B1 was tested, and the “PRISMA enrichment of interactor (log2)” value [1] was 6.66, the “PRISMA enrichment of interactor (log2)” value [2] was 8.33 and the “PRISMA enrichment of interactor (log2)” value [3] was 3.99. The “PRISMA enrichment of interactor (log2)” value [4] was 6.15, the “PRISMA enrichment of interactor (log2)” value [5] was 4.18 and the “PRISMA enrichment of interactor (log2)” value [6] was 6.09.

B2: B3GALT2 (peptide)
chain: MKERENFRRLGPI
For B2, the “PRISMA enrichment of interactor (log2)” value [7] was 4.59, the “PRISMA enrichment of interactor (log2)” value [8] was 6.2 and the “PRISMA enrichment of interactor (log2)” value [9] was 4.98. The “PRISMA enrichment of interactor (log2)” value [10] was 4.64, the “PRISMA enrichment of interactor (log2)” value [11] was 8.66 and the “PRISMA enrichment of interactor (log2)” value [12] was 7.01. For the same binder, the “PRISMA enrichment of interactor (log2)” value [13] was 4.9, the “PRISMA enrichment of interactor (log2)” value [14] was 6.3 and the “PRISMA enrichment of interactor (log2)” value [15] was 5.69. The “PRISMA enrichment of interactor (log2)” value [16] was 4.24.

B3: ENY2 (peptide)
chain: MRVLAFCVLRCPSY
B3 was tested, and the “PRISMA enrichment of interactor (log2)” value [17] was 6.19, the “PRISMA enrichment of interactor (log2)” value [18] was 4.81 and the “PRISMA enrichment of interactor (log2)” value [19] was 5.11. The “PRISMA enrichment of interactor (log2)” value [20] was 8.03, the “PRISMA enrichment of interactor (log2)” value [21] was 5.47 and the “PRISMA enrichment of interactor (log2)” value [22] was 6.24. For the same binder, the “PRISMA enrichment of interactor (log2)” value [23] was 7.05, the “PRISMA enrichment of interactor (log2)” value [24] was 4.13 and the “PRISMA enrichment of interactor (log2)” value [25] was 5.32. The “PRISMA enrichment of interactor (log2)” value [26] was 4.28, the “PRISMA enrichment of interactor (log2)” value [27] was 5.12 and the “PRISMA enrichment of interactor (log2)” value [28] was 5.15. The “PRISMA enrichment of interactor (log2)” value [29] was 5.02, the “PRISMA enrichment of interactor (log2)” value [30] was 5.12 and the “PRISMA enrichment of interactor (log2)” value [31] was 7.09.

B4: ARMC1 (peptide)
chain: MVWQALDS
With B4 the “PRISMA enrichment of interactor (log2)” value [32] was 7.21, the “PRISMA enrichment of interactor (log2)” value [33] was 6.92 and the “PRISMA enrichment of interactor (log2)” value [34] was 6.61. For the same binder, the “PRISMA enrichment of interactor (log2)” value [35] was 6.89, the “PRISMA enrichment of interactor (log2)” value [36] was 5.21 and the “PRISMA enrichment of interactor (log2)” value [18] was 5.06. The “PRISMA enrichment of interactor (log2)” value [37] was 6.42, the “PRISMA enrichment of interactor (log2)” value [38] was 5.61 and the “PRISMA enrichment of interactor (log2)” value [39] was 5.31. For the same binder, the “PRISMA enrichment of interactor (log2)” value [40] was 5.55, the “PRISMA enrichment of interactor (log2)” value [41] was 5.97 and the “PRISMA enrichment of interactor (log2)” value [42] was 6.14. For the same binder, the “PRISMA enrichment of interactor (log2)” value [43] was 4.75, the “PRISMA enrichment of interactor (log2)” value [44] was 5.09 and the “PRISMA enrichment of interactor (log2)” value [45] was 5.56. The “PRISMA enrichment of interactor (log2)” value [46] was 4.24, the “PRISMA enrichment of interactor (log2)” value [47] was 5.2 and the “PRISMA enrichment of interactor (log2)” value [48] was 5.37. For the same binder, the “PRISMA enrichment of interactor (log2)” value [49] was 5.48 and the “PRISMA enrichment of interactor (log2)” value [50] was 5.4.

B5: ZFYVE9 (peptide)
chain: MSKHREVCSLSRV
B5 was tested, and the “PRISMA enrichment of interactor (log2)” value [51] was 5.85, the “PRISMA enrichment of interactor (log2)” value [52] was 5.09 and the “PRISMA enrichment of interactor (log2)” value [53] was 7.93. For the same binder, the “PRISMA enrichment of interactor (log2)” value [54] was 5.66, the “PRISMA enrichment of interactor (log2)” value [55] was 4.94 and the “PRISMA enrichment of interactor (log2)” value [56] was 4.76. The “PRISMA enrichment of interactor (log2)” value [57] was 6.21, the “PRISMA enrichment of interactor (log2)” value [58] was 13.1 and the “PRISMA enrichment of interactor (log2)” value [59] was 9.29.

B6: SVIL-AS1 (peptide)
chain: MDEDVLHPEEPHHR
With B6 the “PRISMA enrichment of interactor (log2)” value [60] was 3.97, the “PRISMA enrichment of interactor (log2)” value [61] was 5.35 and the “PRISMA enrichment of interactor (log2)” value [62] was 5.97. The “PRISMA enrichment of interactor (log2)” value [63] was 4.82, the “PRISMA enrichment of interactor (log2)” value [64] was 4.81 and the “PRISMA enrichment of interactor (log2)” value [65] was 4.96.

B7: ZFAND6 (peptide)
chain: MNLKSAAVKHRRL
For B7, the “PRISMA enrichment of interactor (log2)” value [66] was 6.81, the “PRISMA enrichment of interactor (log2)” value [67] was 5.84 and the “PRISMA enrichment of interactor (log2)” value [68] was 4.88. The “PRISMA enrichment of interactor (log2)” value [69] was 4.05, the “PRISMA enrichment of interactor (log2)” value [70] was 5.22 and the “PRISMA enrichment of interactor (log2)” value [71] was 6.22.

B8: STRAP (peptide)
chain: MPVWTL
For B8, the “PRISMA enrichment of interactor (log2)” value [72] was 4.78, the “PRISMA enrichment of interactor (log2)” value [73] was 5.68 and the “PRISMA enrichment of interactor (log2)” value [74] was 4.89. The “PRISMA enrichment of interactor (log2)” value [75] was 4.74, the “PRISMA enrichment of interactor (log2)” value [76] was 4.84 and the “PRISMA enrichment of interactor (log2)” value [77] was 6.57. For the same binder, the “PRISMA enrichment of interactor (log2)” value [78] was 4.92 and the “PRISMA enrichment of interactor (log2)” value [79] was 4.06.
